Experimental data: PubChem BioAssay AID1508587 (Peter MacCallum Cancer Centre, 2020)
Shown is a random part of about 1,600 reagents. Of all reagents, 623 (39%) got an active call. 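Calls are for each duplex; lactate ratios contain extreme outliers.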 Reagents against one gene are numbered here. Not all columns of the deposit are shown. Reagent sequences are not shown.

Aim: 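Knockdowns that add to vemurafenib's cut in melanoma glycolysis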 (follow-up of hits)
System: human WM266.4 melanoma cells with a BRAF V600 mutation
Knock-down reagent: single siRNA against human genes, 25 nM
Timing: 96 h
Treatment: vemurafenib 300 nM (about IC25), given 48 h after transfection for 48 h
Read-out: 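Per-cell lactate from absorbance divided by DAPI nucleus counts, compared with and without vemurafenib, relative to non-targeting siRNA, mean of 2 replicates; nuclear counts also give cell number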
Scale: lactate per cell, drug vs no drug: higher = less drug-induced drop in lactate per cell
Call rule: 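Enhancer call for any duplex whose drug versus no-drug per-cell lactate ratio is below 0.55 (2 SD beneath non-targeting average); genes confirmed when at least 2 of their 4 duplexes qualify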

Gene	reagent	lactate per cell, drug vs no drug	Outcome
AGAP4 (ArfGAP with GTPase domain, ankyrin repeat and PH domain 4)	1	0.36	active
AGAP4 (ArfGAP with GTPase domain, ankyrin repeat and PH domain 4)	2	0.71	inactive
AGAP4 (ArfGAP with GTPase domain, ankyrin repeat and PH domain 4)	3	0.72	inactive
AGAP4 (ArfGAP with GTPase domain, ankyrin repeat and PH domain 4)	4	0.57	inactive
PACSIN1 (protein kinase C and casein kinase substrate in neurons 1)	1	0.49	active
PACSIN1 (protein kinase C and casein kinase substrate in neurons 1)	2	0.47	active
PACSIN1 (protein kinase C and casein kinase substrate in neurons 1)	3	0.55	inactive
PACSIN1 (protein kinase C and casein kinase substrate in neurons 1)	4	0.64	inactive
REL (REL proto-oncogene, NF-kB subunit)	1	0.77	inactive
REL (REL proto-oncogene, NF-kB subunit)	2	0.68	inactive
REL (REL proto-oncogene, NF-kB subunit)	3	0.5	active
REL (REL proto-oncogene, NF-kB subunit)	4	0.54	active
IMP4 (IMP U3 small nucleolar ribonucleoprotein 4)	1	0.06	active
IMP4 (IMP U3 small nucleolar ribonucleoprotein 4)	2	0.64	inactive
IMP4 (IMP U3 small nucleolar ribonucleoprotein 4)	3	0.28	active
IMP4 (IMP U3 small nucleolar ribonucleoprotein 4)	4	1.18	inactive
AKR1C1 (aldo-keto reductase family 1 member C1)	1	0.64	inactive
AKR1C1 (aldo-keto reductase family 1 member C1)	2	0.64	inactive
AKR1C1 (aldo-keto reductase family 1 member C1)	3	0.66	inactive
AKR1C1 (aldo-keto reductase family 1 member C1)	4	0.69	inactive
L3MBTL3 (L3MBTL histone methyl-lysine binding protein 3)	1	0.16	active
L3MBTL3 (L3MBTL histone methyl-lysine binding protein 3)	2	0.57	inactive
L3MBTL3 (L3MBTL histone methyl-lysine binding protein 3)	3	0.24	active
L3MBTL3 (L3MBTL histone methyl-lysine binding protein 3)	4	0.44	active
MACROH2A1 (macroH2A.1 histone)	1	0.68	inactive
MACROH2A1 (macroH2A.1 histone)	2	0.43	active
MACROH2A1 (macroH2A.1 histone)	3	0.75	inactive
MACROH2A1 (macroH2A.1 histone)	4	0.73	inactive
LRCH3	1	0.96	inactive
LRCH3	2	0.39	active
LRCH3	3	0.5	active
LRCH3	4	0.38	active
UNC45B (unc-45 myosin chaperone B)	1	0.58	inactive
UNC45B (unc-45 myosin chaperone B)	2	0.5	active
UNC45B (unc-45 myosin chaperone B)	3	0.62	inactive
UNC45B (unc-45 myosin chaperone B)	4	0.41	active
TSLIG3C (tRNA splicing ligase complex subunit 3C)	1	0.6	inactive
TSLIG3C (tRNA splicing ligase complex subunit 3C)	2	0.5	active
TSLIG3C (tRNA splicing ligase complex subunit 3C)	3	1.81	inactive
TSLIG3C (tRNA splicing ligase complex subunit 3C)	4	0.57	inactive
YBX1 (Y-box binding protein 1)	1	0.44	active
YBX1 (Y-box binding protein 1)	2	0.3	active
YBX1 (Y-box binding protein 1)	3	0.48	active
YBX1 (Y-box binding protein 1)	4	0.5	active
ZFP36 (ZFP36 zinc finger CCCH-type)	1	0.43	active
ZFP36 (ZFP36 zinc finger CCCH-type)	2	0.31	active
ZFP36 (ZFP36 zinc finger CCCH-type)	3	0.64	inactive
ZFP36 (ZFP36 zinc finger CCCH-type)	4	0.51	active
TYK2 (tyrosine kinase 2)	1	0.7	inactive
TYK2 (tyrosine kinase 2)	2	0.6	inactive
TYK2 (tyrosine kinase 2)	3	0.66	inactive
TYK2 (tyrosine kinase 2)	4	0.44	active
MRPL9 (mitochondrial ribosomal protein L9)	1	0.34	active
MRPL9 (mitochondrial ribosomal protein L9)	2	0.52	active
MRPL9 (mitochondrial ribosomal protein L9)	3	0.73	inactive
MRPL9 (mitochondrial ribosomal protein L9)	4	0.68	inactive
HPSE2 (heparanase 2 (inactive))	1	0.33	active
HPSE2 (heparanase 2 (inactive))	2	0.48	active
HPSE2 (heparanase 2 (inactive))	3	0.46	active
HPSE2 (heparanase 2 (inactive))	4	0.67	inactive
TRIB3 (tribbles pseudokinase 3)	1	0.56	inactive
TRIB3 (tribbles pseudokinase 3)	2	0.92	inactive
TRIB3 (tribbles pseudokinase 3)	3	0.84	inactive
TRIB3 (tribbles pseudokinase 3)	4	0.53	active

Taken from above.
For “lactate per cell, drug vs no drug”, MACROH2A1 (macroH2A.1 histone) #1 shows 0.68
Under “Outcome”, YBX1 (Y-box binding protein 1) #2 is entered as active
TRIB3 (tribbles pseudokinase 3) #1, lactate per cell, drug vs no drug: 0.56
Entry of UNC45B (unc-45 myosin chaperone B) #3 in “Outcome”: inactive
